In one assay the target is hGLP1R^WT-SmBiT (human) (UniProt P43220). Description: split reporter; NanoBiT complementation in live INS-1 832/3 Glp1r−/− cells cotransfected with hGLP1R^WT or ^A316T-SmBiT and LgBiT-mini-Gs or LgBiT–β-arrestin 2; HBSS with furimazine, 37°C; baseline (vehicle) and after GLP-1, exendin-4 or exendin-F1.
The target in assay [1] is hGLP1R^A316T-SmBiT (human) (UniProt P43220). Described as above.

Protein sequences, listed by entry. Tags and fused reporters are not part of them. Lines headed by an entry give the natural chain unless they say otherwise; changes in a name come on top. Chains listed by the source or under a name are the forms on record and can include a tag or linker. Residues count along the entry.
hGLP1R^WT-SmBiT (P43220, residues 24-463): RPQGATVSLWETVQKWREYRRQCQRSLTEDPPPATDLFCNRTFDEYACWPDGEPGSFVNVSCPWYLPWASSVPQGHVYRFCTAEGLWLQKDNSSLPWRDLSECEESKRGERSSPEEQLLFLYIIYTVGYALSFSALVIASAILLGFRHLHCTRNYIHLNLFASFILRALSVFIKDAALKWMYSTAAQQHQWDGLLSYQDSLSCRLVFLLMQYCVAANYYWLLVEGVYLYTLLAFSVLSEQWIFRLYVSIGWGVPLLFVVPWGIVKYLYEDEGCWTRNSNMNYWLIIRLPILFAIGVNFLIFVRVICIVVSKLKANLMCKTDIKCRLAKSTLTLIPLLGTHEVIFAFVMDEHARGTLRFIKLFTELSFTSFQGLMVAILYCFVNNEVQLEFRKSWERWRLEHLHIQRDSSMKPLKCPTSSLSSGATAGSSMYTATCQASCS
hGLP1R^A316T-SmBiT (P43220, form named): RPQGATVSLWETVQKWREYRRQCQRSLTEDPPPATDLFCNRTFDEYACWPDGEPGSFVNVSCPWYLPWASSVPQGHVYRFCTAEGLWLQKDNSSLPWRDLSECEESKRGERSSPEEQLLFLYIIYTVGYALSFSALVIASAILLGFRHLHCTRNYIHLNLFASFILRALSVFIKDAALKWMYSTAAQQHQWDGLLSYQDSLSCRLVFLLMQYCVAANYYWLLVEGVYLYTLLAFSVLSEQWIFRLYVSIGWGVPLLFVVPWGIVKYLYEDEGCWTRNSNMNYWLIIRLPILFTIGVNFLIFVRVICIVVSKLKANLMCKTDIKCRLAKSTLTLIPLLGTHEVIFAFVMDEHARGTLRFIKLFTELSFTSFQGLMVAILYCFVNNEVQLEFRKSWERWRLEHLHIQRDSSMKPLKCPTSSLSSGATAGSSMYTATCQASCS

These are yes or no findings as the source states them, for the method shown. In cells and extracts the contact can be indirect. Some results given as binding are weak or reduced against the parent protein; the word gives no strength.

With “LgBiT–β-arrestin 2 (from UniProt P32121 1-409)”, the binding result (with hGLP1R^WT-SmBiT (human); in assay [1]) was “binds” in each case.

The values above are taken from PMC13267291, “In vivo functional profiling and structural characterization of the human GLP1R A316T variant” (Science Advances, 2026).
